In the supplement of paper PMC10849652:
The other results are listed elsewhere or left out.

Chains of the proteins cited; added tags and fusions are not shown. Lines headed by an entry give the natural chain unless they say otherwise; changes in a name come on top.
UniProt Q9NX46: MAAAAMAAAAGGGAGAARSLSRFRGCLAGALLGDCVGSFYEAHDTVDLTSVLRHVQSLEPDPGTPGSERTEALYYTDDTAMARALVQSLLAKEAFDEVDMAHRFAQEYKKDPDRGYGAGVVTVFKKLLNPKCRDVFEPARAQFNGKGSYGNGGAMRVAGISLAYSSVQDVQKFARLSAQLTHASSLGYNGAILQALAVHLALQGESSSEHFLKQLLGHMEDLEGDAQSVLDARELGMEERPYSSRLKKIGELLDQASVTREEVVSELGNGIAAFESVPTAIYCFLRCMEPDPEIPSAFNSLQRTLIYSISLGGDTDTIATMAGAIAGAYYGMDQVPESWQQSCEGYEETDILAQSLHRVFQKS
UniProt P05091: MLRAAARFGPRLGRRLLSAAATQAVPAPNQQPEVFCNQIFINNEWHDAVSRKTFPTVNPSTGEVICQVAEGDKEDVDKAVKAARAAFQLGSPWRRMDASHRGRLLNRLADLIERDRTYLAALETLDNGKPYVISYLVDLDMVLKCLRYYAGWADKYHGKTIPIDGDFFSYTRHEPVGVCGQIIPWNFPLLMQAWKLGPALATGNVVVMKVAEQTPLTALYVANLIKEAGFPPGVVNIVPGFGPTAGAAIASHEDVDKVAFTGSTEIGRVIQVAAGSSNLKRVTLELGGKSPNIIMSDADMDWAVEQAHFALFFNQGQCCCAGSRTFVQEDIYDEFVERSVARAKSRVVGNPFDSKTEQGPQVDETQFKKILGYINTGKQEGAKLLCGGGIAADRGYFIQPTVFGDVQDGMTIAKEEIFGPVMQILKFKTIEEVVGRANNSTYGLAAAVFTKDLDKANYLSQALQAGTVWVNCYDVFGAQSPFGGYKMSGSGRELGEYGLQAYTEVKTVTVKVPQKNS
UniProt P35612: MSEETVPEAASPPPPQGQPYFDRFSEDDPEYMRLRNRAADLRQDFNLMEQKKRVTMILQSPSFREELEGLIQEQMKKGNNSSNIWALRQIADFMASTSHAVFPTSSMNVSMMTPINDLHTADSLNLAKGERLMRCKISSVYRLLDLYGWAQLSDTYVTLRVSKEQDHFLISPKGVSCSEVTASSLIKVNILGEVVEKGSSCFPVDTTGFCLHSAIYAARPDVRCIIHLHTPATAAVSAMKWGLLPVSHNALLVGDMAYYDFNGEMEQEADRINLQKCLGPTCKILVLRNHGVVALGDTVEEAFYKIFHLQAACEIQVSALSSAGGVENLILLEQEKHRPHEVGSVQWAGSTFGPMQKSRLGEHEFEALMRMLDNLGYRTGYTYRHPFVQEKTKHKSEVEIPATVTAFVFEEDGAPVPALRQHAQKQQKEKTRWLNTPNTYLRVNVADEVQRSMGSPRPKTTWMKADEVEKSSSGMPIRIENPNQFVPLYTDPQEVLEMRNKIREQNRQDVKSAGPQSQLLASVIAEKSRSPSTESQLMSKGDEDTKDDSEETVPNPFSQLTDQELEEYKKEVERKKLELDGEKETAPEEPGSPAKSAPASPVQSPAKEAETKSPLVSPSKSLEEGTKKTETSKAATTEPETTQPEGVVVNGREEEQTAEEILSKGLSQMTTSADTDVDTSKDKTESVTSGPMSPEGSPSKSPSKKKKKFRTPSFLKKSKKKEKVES
UniProt Q9H1A4, whole entry, looked up: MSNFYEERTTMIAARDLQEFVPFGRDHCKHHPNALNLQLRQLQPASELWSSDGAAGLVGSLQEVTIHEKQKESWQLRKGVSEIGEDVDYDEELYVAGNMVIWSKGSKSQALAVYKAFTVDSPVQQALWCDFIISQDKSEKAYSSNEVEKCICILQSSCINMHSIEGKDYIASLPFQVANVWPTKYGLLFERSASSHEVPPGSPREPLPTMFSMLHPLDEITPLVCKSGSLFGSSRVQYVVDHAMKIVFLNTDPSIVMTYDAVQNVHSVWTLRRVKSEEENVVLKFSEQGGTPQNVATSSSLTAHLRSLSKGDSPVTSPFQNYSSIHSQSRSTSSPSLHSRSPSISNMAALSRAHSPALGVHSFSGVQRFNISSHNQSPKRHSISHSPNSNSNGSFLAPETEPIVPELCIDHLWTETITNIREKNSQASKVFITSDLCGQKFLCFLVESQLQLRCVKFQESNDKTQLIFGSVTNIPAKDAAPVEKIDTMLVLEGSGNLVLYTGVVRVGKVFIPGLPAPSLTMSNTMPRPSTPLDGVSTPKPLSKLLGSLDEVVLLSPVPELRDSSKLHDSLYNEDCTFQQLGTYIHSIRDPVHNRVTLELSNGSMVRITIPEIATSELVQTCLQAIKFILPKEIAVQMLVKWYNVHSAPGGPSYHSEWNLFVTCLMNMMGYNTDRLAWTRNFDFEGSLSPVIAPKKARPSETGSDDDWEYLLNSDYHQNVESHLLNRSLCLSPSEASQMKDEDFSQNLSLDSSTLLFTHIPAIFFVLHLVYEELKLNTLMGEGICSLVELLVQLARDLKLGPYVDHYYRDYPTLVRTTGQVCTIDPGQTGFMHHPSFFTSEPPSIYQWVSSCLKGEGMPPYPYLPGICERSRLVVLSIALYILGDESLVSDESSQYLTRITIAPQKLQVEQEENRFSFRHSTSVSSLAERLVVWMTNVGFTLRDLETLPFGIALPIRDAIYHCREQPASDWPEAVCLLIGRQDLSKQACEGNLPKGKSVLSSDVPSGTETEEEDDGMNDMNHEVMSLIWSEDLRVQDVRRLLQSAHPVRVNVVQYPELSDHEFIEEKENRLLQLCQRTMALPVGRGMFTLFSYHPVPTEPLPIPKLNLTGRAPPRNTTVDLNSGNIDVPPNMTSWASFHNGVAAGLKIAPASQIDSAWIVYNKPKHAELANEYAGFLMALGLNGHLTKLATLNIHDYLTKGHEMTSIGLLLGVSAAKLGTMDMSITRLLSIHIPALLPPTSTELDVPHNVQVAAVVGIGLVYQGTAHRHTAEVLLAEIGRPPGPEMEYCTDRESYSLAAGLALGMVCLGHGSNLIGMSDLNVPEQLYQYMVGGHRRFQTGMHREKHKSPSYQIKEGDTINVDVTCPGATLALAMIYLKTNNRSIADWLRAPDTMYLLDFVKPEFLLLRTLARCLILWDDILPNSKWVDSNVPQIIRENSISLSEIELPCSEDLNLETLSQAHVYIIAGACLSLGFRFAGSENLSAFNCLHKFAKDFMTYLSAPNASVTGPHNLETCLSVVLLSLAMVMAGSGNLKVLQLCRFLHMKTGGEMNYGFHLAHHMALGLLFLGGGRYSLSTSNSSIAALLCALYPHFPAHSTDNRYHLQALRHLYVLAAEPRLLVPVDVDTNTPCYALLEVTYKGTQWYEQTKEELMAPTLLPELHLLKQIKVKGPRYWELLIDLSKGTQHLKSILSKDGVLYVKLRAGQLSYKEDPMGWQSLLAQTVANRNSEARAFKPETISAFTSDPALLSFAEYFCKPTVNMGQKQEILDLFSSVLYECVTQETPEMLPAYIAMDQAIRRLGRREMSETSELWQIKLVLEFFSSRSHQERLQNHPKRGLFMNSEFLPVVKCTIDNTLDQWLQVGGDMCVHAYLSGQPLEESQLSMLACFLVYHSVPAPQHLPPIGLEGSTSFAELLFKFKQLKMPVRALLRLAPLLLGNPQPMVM
UniProt Q3SY69: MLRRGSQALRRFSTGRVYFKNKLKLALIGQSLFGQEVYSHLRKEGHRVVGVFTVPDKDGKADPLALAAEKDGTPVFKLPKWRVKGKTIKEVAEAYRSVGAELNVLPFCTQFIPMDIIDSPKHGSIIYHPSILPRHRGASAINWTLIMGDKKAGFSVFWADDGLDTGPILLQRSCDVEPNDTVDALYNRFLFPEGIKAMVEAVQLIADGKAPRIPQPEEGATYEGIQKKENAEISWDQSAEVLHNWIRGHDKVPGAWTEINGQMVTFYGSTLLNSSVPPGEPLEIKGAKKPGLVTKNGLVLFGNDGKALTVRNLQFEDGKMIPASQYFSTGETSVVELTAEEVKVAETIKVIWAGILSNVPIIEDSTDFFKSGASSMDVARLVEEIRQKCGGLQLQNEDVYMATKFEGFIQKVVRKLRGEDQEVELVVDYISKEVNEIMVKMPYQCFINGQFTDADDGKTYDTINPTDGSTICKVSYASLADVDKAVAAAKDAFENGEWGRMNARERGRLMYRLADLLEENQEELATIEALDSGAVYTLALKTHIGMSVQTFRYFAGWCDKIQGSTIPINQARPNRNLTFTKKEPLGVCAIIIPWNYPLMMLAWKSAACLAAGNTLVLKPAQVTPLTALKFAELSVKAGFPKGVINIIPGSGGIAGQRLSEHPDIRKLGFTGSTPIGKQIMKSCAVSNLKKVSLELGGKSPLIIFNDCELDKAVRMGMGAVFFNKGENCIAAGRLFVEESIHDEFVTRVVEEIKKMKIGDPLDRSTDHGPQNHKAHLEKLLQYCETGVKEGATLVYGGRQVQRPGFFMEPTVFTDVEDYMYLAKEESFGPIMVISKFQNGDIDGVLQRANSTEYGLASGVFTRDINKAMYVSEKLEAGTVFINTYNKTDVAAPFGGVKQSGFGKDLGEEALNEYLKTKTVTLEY
UniProt O00116: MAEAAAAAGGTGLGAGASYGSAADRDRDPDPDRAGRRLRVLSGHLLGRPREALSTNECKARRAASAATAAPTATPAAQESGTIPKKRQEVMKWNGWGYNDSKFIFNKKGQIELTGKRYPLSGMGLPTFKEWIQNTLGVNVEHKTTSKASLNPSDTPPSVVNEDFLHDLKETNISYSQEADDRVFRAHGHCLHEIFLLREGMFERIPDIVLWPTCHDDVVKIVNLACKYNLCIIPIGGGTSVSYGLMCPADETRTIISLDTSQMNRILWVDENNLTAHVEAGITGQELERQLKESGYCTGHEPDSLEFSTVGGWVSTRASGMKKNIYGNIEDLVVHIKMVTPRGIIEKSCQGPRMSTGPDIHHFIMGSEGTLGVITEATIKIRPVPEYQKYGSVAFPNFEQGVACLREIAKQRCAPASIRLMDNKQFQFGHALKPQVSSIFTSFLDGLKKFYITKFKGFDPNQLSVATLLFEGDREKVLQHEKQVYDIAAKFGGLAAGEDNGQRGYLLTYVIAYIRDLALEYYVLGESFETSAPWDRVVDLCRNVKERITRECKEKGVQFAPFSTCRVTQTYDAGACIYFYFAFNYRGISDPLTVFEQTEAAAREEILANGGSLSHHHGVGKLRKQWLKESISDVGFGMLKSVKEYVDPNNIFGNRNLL
UniProt Q9UEY8: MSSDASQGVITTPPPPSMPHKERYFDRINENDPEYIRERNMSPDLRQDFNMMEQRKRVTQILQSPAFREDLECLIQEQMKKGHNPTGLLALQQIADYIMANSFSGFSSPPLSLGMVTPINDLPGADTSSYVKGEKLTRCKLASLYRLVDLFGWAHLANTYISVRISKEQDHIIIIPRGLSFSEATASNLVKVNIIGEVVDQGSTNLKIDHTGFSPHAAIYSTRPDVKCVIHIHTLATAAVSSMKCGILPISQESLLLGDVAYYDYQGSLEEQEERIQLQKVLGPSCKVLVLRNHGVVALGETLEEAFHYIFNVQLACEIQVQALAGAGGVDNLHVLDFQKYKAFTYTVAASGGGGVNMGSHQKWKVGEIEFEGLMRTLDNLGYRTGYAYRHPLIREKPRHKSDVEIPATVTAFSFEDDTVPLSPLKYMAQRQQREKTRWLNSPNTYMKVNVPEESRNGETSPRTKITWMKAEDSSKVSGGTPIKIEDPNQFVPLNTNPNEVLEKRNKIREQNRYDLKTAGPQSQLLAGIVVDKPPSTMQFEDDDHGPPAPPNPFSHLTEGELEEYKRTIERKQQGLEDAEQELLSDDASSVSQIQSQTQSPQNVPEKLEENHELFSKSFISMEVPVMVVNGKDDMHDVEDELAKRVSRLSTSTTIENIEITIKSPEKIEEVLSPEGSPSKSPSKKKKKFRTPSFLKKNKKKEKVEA
UniProt Q8N142: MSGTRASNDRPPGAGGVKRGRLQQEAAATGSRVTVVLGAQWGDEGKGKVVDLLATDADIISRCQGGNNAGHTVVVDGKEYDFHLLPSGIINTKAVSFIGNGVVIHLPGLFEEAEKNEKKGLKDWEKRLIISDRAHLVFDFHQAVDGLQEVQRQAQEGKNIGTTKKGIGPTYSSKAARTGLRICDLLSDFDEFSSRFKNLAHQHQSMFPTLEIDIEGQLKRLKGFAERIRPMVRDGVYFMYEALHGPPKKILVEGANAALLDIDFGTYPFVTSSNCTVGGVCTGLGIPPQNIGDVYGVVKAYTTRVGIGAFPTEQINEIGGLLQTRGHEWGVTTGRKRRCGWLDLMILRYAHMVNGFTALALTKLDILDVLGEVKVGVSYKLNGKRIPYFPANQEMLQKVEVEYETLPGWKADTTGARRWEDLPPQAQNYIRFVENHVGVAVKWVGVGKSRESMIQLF

compound: NC(=O)Nc1cc(-c2cccc(F)c2)sc1C(=O)N[C@H]1CCCNC1; assay: log2 fold change, soluble protein after heating vs DMSO (PISA); higher = thermal stabilisation; K562 cells, 10 uM, 30 min; active = over 0.2 and 3.5 SD of the protein, either way, in both replicates (recomputed)
How it was run: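 Values are thermal stability changes relative to control samples and are taken from duplicates. They are stated as log2 fold changes. Before quantification by TMTpro 16plex LC-MS/MS with equalised channel sums, K562 cells at 2×10^6 cells/mL were treated with 10 μM compound for 30 min, heated in aliquots for 3 min across 48°C-58°C, pooled, extracted in PBS with 0.5% NP-40 at 4°C, and centrifuged at 21,000xg for 90 min to give the soluble supernatant.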

log2 fold change, inactive:
ADSS2 (UniProt P30520) -0.05
ADPRHL2 (UniProt Q9NX46) -0.022
ALDH2 (UniProt P05091) 0.012
AKR7A2 (UniProt O43488) 0.004
ADD2 (UniProt P35612) 0.048
AKR1B1 (UniProt P15121) -0.093
AKAP8L (UniProt Q9ULX6) -0.006
ANAPC1 (UniProt Q9H1A4) -0.001
AK3 (UniProt Q9UIJ7) -0.009
ALDH1B1 (UniProt P30837) 0
AKT1S1 isoform 3 (UniProt Q96B36) 0.036
AFDN isoform 5 (UniProt P55196) -0.154
AGPAT1 (UniProt Q99943) 0.013
ALKBH6 isoform 2 (UniProt Q3KRA9) -0.061
ALDH6A1 (UniProt Q02252) -0.02
ALKBH2 (UniProt Q6NS38) -0.037
ALG9 isoform 3 (UniProt Q9H6U8) -0.021
AIP (UniProt O00170) -0.004
ALDH1L2 (UniProt Q3SY69) 0.015
AGPS (UniProt O00116) -0.013
AKIRIN2 (UniProt Q53H80) 0.062
AGL (UniProt P35573) -0.063
ADD3 (UniProt Q9UEY8) 0.03
ALG5 (UniProt Q9Y673) -0.047
ADK (UniProt P55263) -0.071
AKAP8 (UniProt O43823) -0.043
AHCY (UniProt P23526) 0.061
AIFM1 (UniProt O95831) 0.013
ALG6 (UniProt Q9Y672) -0.005
ALDOA isoform 2 (UniProt P04075) 0.081
AHCYL2 (UniProt Q96HN2) 0.035
ADSS1 (UniProt Q8N142) -0.017
AHCYL1 (UniProt O43865) 0.183

A stretch from further up, for reference:
log2 fold change, inactive:
ALDH6A1 (UniProt Q02252) -0.02
ALKBH2 (UniProt Q6NS38) -0.037
ALG9 isoform 3 (UniProt Q9H6U8) -0.021
AIP (UniProt O00170) -0.004
ALDH1L2 (UniProt Q3SY69) 0.015
AGPS (UniProt O00116) -0.013
AKIRIN2 (UniProt Q53H80) 0.062
AGL (UniProt P35573) -0.063
ADD3 (UniProt Q9UEY8) 0.03
ALG5 (UniProt Q9Y673) -0.047
